Literature values, collected in US20240315958A1, “METHOD AND DEVICE FOR PROVIDING EFFECTIVE CONTRACEPTION” (Chemo Research, S.L., priority 2023, published 2024).
Like-named read-outs stand apart in the source and are kept apart here. For at least one compound, name, drawing or mass did not settle the structure.

System: women
Settings: cited from earlier work; for Lowest effective dose for consistent ovulation inhibition: oral

C#C[C@]1(O)CC[C@H]2[C@@H]3CCC4=CC(=O)CC[C@@H]4[C@H]3CC[C@@]21CC [levonorgestrel]
Contraceptive efficacy (study NCT02403401) (40 μg/day via intravaginal ring, study prematurely terminated): high number of pregnancies
Cycles with ovulation inhibited (POP, desogestrel 0.075 mg, LNG 0.030 mg): 72%
Lowest effective dose for consistent ovulation inhibition (56 days): 0.115 mg per day
Lowest effective dose for consistent ovulation inhibition: 115 µg/day
